Experimental data as given in patent publication US7732183B2, “Method for refolding enzymes” (Elan Pharmaceuticals, Inc., priority 2001, dated 2010).
At least one read-out could not be matched to a standard name with certainty.

Experiments:
Assay in all cases: Kinetic comparison of CHO and E. coli BACE (Vmax, kcat, Km)
Format in all cases: biochemical
[1] = system: GLTNIKTEEISEISY-↓-EVEFRWKK [SEQ ID NO: 10]; settings: substrate SEQ ID NO: 10; pH 5.5, 37° C.
[2] = system: SEISY-↓-EVEFRWKK [SEQ ID NO: 9]; settings: substrate SEQ ID NO: 9; pH 5.5, 37° C.
[3] = target: T1, EIDL-↓-MVLDWHDR [SEQ ID NO: 13] (Homo sapiens, UniProt P56817); settings: substrate SEQ ID NO: 13; pH 5.5, 37° C.
T1 construct: made in house; host or cells: CHO cells, purified from conditioned media

Molecule | kcat/Km [1] [sec^−1μM^−1] | kcat/Km [2] [sec^−1μM^−1] | kcat/Km [3] [sec^−1μM^−1]
PcDNA3.1Asp2LΔTM(His)6: Recombinant human BACE lacking transmembrane domain, His6 tag, expressed in CHO cells (control), SEQ ID NO:23 (protein, listed as Homo sapiens, His6 tag; Human soluble BACE with 6-His tag) MAQALPWLLLWMGAGVLPAHGTQHGIRLPLRSGLGGAPLGLRLPRETDEEPEEPGRRGSFVEMVDNLRGKSGQGYYVEMTVGSPPQTLNILVDTGSSNFAVGAAPHPFLHRYYQRQLSSTYRDLRKGVYVPYTQGKWEGELGTDLVSIPHGPNVTVRANIAAITESDKFFINGSNWEGILGLAYAEIARPDDSLEPFFDSLVKQTHVPNLFSLQLCGAGFPLNQSEVLASVGGSMIIGGIDHSLYTGSLWYTPIRREWYYEVIIVRVEINGQDLKMDCKEYNYDKSIVDSGTTNLRLPKKVFEAAVKSIKAASSTEKFPDGFWLGEQLVCWQAGTTPWNIFPVISLYLMGEVTNQSFRITILPQQYLRPVEDVATSQDDCYKFAISQSSTGTVMGAVIMEGFYVVFDRARKRIGFAVSACHVHDEFRTAAVEGPFVTLDMEDCGYNIPQTDESHHHHHH | 0.0704 | 0.0045 | 0.0013
pQE70-BACE: (M)R36 to S432 BACE-RS(His)6 lacking prosequence, SEQ ID NO:3, expressed in E. coli and refolded (protein, listed as Homo sapiens, His6 tag) MRGSFVEMVDNLRGKSGQGYYVEMTVGSPPQTLNILVDTGSSNFAVGAAPHPFLHRYYQRQLSSTYRDLRKGVYVPYTQGKWEGELGTDLVSIPHGPNVTVRANIAAITESDKFFINGSNWEGILGLAYAEIARPDDSLEPFFDSLVKQTHVPNLFSLQLCGAGFPLNQSEVLASVGGSMIIGGIDHSLYTGSLWYTPIRREWYYEVIIVRVEINGQDLKMDCKEYNYDKSIVDSGTTNLRLPKKVFEAAVKSIKAASSTEKFPDGFWLGEQLVCWQAGTTPWNIFPVISLYLMGEVTNQSFRITILPQQYLRPVEDVATSQDDCYKFAISQSSTGTVMGAVIMEGFYVVFDRARKRIGFAVSACHVHDEFRTAAVEGPFVTLDMEDCGYNIPQTDESRSHHHHHH | 0.0581 | 0.0049 | 
